Experimental data published in patent US10456465B2, “Compositions, kits, and methods for the diagnosis prognosis, monitoring, treatment and modulation of post-transplant lymphoproliferative disorders and hypoxia associated angiogenesis disorders using galectin-1” (Dana-Farber Cancer Institute, Inc., priority 2009, dated 2019).
At least one compound was matched to its structure with a doubt left.

System: PI3K
Test: Chemical inhibition of PI3K and Gal1 expression in EBV-transformed LCLs
Assay type: cell-based, human
Details: 25 μM, 72 h; EBV-transformed LCLs NOR and RIC; immunoblot

For `O=c1cc(N2CCOCC2)oc2c(-c3ccccc3)cccc12` [Ly294002], the Gal1 expression was “reduced”.
